Results: US7563623B2, “Biosensor” (FUJIFILM Corporation, priority 2006, dated 2009)
Some entries repeat one wording, which the source may state once for all of them.

assay: Solubility of SAM compounds in water, visual observation after standing at 25° C. for one day; assay type: physicochemical; conditions: conclusion from Table 1
Description: The mixtures were allowed to stand at 25° C. for one day, followed by observation. […] The symbol “x” indicates a resultant in which precipitation and sedimentation were observed, the symbol “Δ” indicates a resultant in which opacity was observed, and the symbol “◯” indicates a resultant having an achromatic and transparent color. • 16-Hydroxy-1-hexadecanethiol (Frontier Scientific) • 11-Hydroxy-1-undecanethiol (Aldrich) • 8-Hydroxy-1-octanethiol (Aldrich) • 6-Hydroxy-1-hexanethiol (Aldrich) • 11-Amino-1-undecanethiol, hydrochloride (Dojindo Laboratories) • 8-Amino-1-octanethiol, hydrochloride (Dojindo Laboratories) • 6-Amino-1-hexanethiol, hydrochloride (Dojindo Laboratories)

Row | SMILES | ability to form a self-assembled monolayer (SAM) on a metal film in an aqueous solution system
1 | Cl.NCCCCCCCCCCCS [11-Amino-1-undecanethiol, hydrochloride] | unable to form a self-assembled monolayer (SAM)
2 | OCCCCCCCCCCCS [11-Hydroxy-1-undecanethiol] | unable to form a self-assembled monolayer (SAM)
3 | OCCCCCCCCCCCCCCCCS [16-Hydroxy-1-hexadecanethiol] | unable to form a self-assembled monolayer (SAM)
